{
  "source": "paper PMC12040169",
  "about": "(PLOS Biology, 2025)",
  "note": "Some of the results follow.",
  "data": [
    {"tested_on": "T1, CTL2-GFP (C. trachomatis L2/434/Bu, GFP-expressing)", "T1 construct": "L2/434/Bu, GFP-expressing", "design": "species or system HeLa; Intracellular C. trachomatis growth in HeLa cells, bulk GFP fluorescence relative to DMSO", "conditions": "bulk GFP, single well; 28.5 h, 10 µM; inhibitor", "units": {"% of control remaining": "%"}, "values": [
      {"molecule": "COc1ccc(-c2cc(Nc3ccc(OC)cc3OC)ncn2)cc1", "note": "[CBK090763]", "% of control remaining": 90.3463},
      {"molecule": "COc1ccccc1C1(NC(=O)c2c(C)noc2C)CCCC1", "note": "[CBK283644]", "% of control remaining": 121.091},
      {"molecule": "COc1cc(C)nc(NN)n1", "note": "[CBK262078]", "% of control remaining": 101.049},
      {"molecule": "O=C(NCCc1c[nH]cn1)N1CCN(c2ccc(F)cc2)CC1", "note": "[CBK156394]", "% of control remaining": 117.129},
      {"molecule": "CC(C)(C)c1cc(-c2nc3ccccc3[nH]2)c(O)c(-c2nc3ccccc3[nH]2)c1", "note": "[CBK266084]", "% of control remaining": 122.82},
      {"molecule": "CCCNC(=O)Cn1cnc2sc(C(=O)Nc3ccc(OCC)cc3)c(C)c2c1=O", "note": "[CBK071920]", "% of control remaining": 120.748},
      {"molecule": "NS(=O)(=O)c1ccc(NC(=S)NNS(=O)(=O)c2ccc(Br)cc2)cc1", "note": "[CBK266928]", "% of control remaining": 127.179},
      {"molecule": "O=C(NCc1cccc2ccccc12)N1CCCC(CO)C1", "note": "(stereo not drawn) [CBK156035]", "% of control remaining": 114.065},
      {"molecule": "CCOC(=O)C1=CC2C(=NC3=C2CCCC3)C=C1", "note": "(stereo not drawn) [CBK009652]", "% of control remaining": 115.954},
      {"molecule": "COCCN(CC1CC1)C(=O)NCc1cccc(Cl)c1", "note": "[CBK304368]", "% of control remaining": 99.8867},
      {"molecule": "CC(=O)Nc1ccc(CNC(=O)CN(C)Cc2cc(C)on2)cc1", "note": "[CBK307042]", "% of control remaining": 129.099},
      {"molecule": "Cc1[nH]c2ccccc2c1C(c1ccccc1OCC(=O)O)c1c(C)[nH]c2ccccc12", "note": "[CBK266038]", "% of control remaining": 157.28},
      {"molecule": "CN(C)c1ccc(-c2nccnc2NCc2ccc(S(C)(=O)=O)cc2)cc1", "note": "[CBK036902]", "% of control remaining": 108.788},
      {"molecule": "Nc1ncc(-c2ccc(C(=O)N3CCOCC3)cc2)nc1C(=O)NC1CCCCC1", "note": "[CBK149160]", "% of control remaining": 111.583},
      {"molecule": "COc1ccccc1CN(C)C(=O)Nc1ccc(S(N)(=O)=O)cc1", "note": "[CBK306026]", "% of control remaining": 148.556},
      {"molecule": "CC(C)C[C@@H]1N[C@H](C(=O)NCc2cccnc2)Cc2c[nH]c3cccc1c23", "note": "[CBK289418]", "% of control remaining": 102.255},
      {"molecule": "COc1ccc(OC)c(CN2CCN(CCCc3ccccc3)CC2)c1", "note": "[CBK264304]", "% of control remaining": 98.2955},
      {"molecule": "COc1cccc(NC(=O)c2cnc(-c3ccc(Cl)cc3)c(-c3ccco3)c2)c1OC", "note": "[CBK037428]", "% of control remaining": 146.116},
      {"molecule": "Cc1nn(Cc2cccc(C(=O)Nc3ccc(S(=O)(=O)N4CCCCC4)cc3)c2)c(C)c1Cl", "note": "[CBK265815]", "% of control remaining": 114.638},
      {"molecule": "O=C(COc1ccc(S(=O)(=O)N2CCc3ccccc32)cc1Cl)NCc1ccco1", "note": "[CBK268293]", "% of control remaining": 137.993},
      {"molecule": "O=C(NCCN1CCc2ccccc2C1)C1CCCCC1", "note": "[CBK305049]", "% of control remaining": 115.121},
      {"molecule": "COc1cc2c(cc1NC(=O)CSc1nc3ccccc3[nH]1)oc1ccccc12", "note": "[CBK265153]", "% of control remaining": 186.595},
      {"molecule": "CCC1CCCCN1C(=O)c1ccc(C)c(OC)c1", "note": "(stereo not drawn) [CBK081557]", "% of control remaining": 104.337},
      {"molecule": "Cc1ccnc(NCC2CCN(CC(=O)Nc3cc(C)no3)C2)c1", "note": "(stereo not drawn) [CBK306121]", "% of control remaining": 114.26},
      {"molecule": "CC(=O)N[C@H](Cc1c[nH]c2ccccc12)C(=O)N1CCN(c2ccc(C(F)(F)F)cc2)CC1", "note": "[CBK091314]", "% of control remaining": 113.518},
      {"molecule": "O=C(C1CCCC1)N1C[C@@H]2CCCCN(Cc3cccnc3)[C@@H]2C1", "note": "[CBK285492]", "% of control remaining": 130.499},
      {"molecule": "CC(C)Nc1cc(SCc2ccc(F)cc2)ncn1", "note": "[CBK107158]", "% of control remaining": 100.62},
      {"molecule": "CCOc1ccc(NCc2ccccc2NS(=O)(=O)c2ccc(C)cc2)cc1", "note": "[CBK056876]", "% of control remaining": 83.1157},
      {"molecule": "CCC(CO)Nc1cncc(-c2ccccc2CO)n1", "note": "(stereo not drawn) [CBK065775]", "% of control remaining": 147.779},
      {"molecule": "COc1ccccc1CNc1ccc(S(N)(=O)=O)cc1", "note": "[CBK288476]", "% of control remaining": 82.2703},
      {"molecule": "CC(C)Cc1cc(CNC(=O)Nc2cc(-c3cccnc3)nn2C)no1", "note": "[CBK307048]", "% of control remaining": 142.116},
      {"molecule": "COCC(=O)N1CCCC(c2nc(C)n3c(C)csc23)C1", "note": "(stereo not drawn) [CBK285214]", "% of control remaining": 128.456},
      {"molecule": "Cc1cc(C(=O)N2CCC3(C/C=C/CCOc4ccccc4C(=O)NCCCNC3=O)CC2)no1", "note": "[CBK292155]", "% of control remaining": 103.005},
      {"molecule": "CC(=O)Nc1sc(/C(C#N)=C/c2cccc(Oc3ccccc3)c2)nc1-c1ccc(C)cc1", "note": "[CBK264895]", "% of control remaining": 115.501},
      {"molecule": "OCCN1CCN(Cc2nc(O)c3ccccc3n2)CC1", "note": "[CBK266089]", "% of control remaining": 165.345},
      {"molecule": "O=C(Nc1ccc2c(c1)CS(=O)(=O)C2)c1cccs1", "note": "[CBK057563]", "% of control remaining": 112.911},
      {"molecule": "CCN(CC)CC/N=C1/CCCc2ccccc2N1", "note": "[CBK263520]", "% of control remaining": 100},
      {"molecule": "CCn1cc(NC(=O)CCn2c(C(F)F)cc3cccnc32)cn1", "note": "[CBK282769]", "% of control remaining": 94.9867},
      {"molecule": "COc1ccc(CCNC(=O)C2CCCN(S(=O)(=O)c3ccc4ccccc4c3)C2)cc1", "note": "(stereo not drawn) [CBK269601]", "% of control remaining": 127.65},
      {"molecule": "COc1ccc(Cl)cc1N1CCN(CCCCC2NC(=O)NC2=O)CC1", "note": "(stereo not drawn) [CBK126448]", "% of control remaining": 105.125},
      {"molecule": "Cc1n[nH]cc1CN(CCCn1ccnc1)Cc1cccc(F)c1", "note": "[CBK282650]", "% of control remaining": 113.477},
      {"molecule": "O=C(c1ccc2occc2c1)N1CCCC2(CCN(Cc3ccccc3)C2)C1", "note": "(stereo not drawn) [CBK136882]", "% of control remaining": 96.4813},
      {"molecule": "CCNC(=S)NNC(=O)CCn1c2ccccc2c2ccccc21", "note": "[CBK262564]", "% of control remaining": 100},
      {"molecule": "CS(=O)(=O)N1CC2(CCN(C(=O)N(CCN)CCc3ccc(Cl)cc3)CC2)c2ccccc21", "note": "[CBK001687C]", "% of control remaining": 79.1481},
      {"molecule": "O=C(NCCc1c[nH]c2ccccc12)c1cc2c(ccc3ccccc32)oc1=O", "note": "[CBK264550]", "% of control remaining": 100},
      {"molecule": "Cn1cc(Nc2nc(-c3ccc4c(c3)CCCN4S(C)(=O)=O)cs2)cn1", "note": "[CBK306236]", "% of control remaining": 87.7917},
      {"molecule": "Cc1cc(NS(=O)(=O)c2cccc3nsnc23)n(C)n1", "note": "[CBK067246]", "% of control remaining": 142.369},
      {"molecule": "O=C(c1ccc2[nH]ccc2c1)N1CCN(c2ncccn2)CC1", "note": "[CBK144500]", "% of control remaining": 91.2075},
      {"molecule": "O=C(Nc1ccc(OC(F)F)cc1)Nc1c(Br)cnc2cccnc12", "note": "[CBK107632]", "% of control remaining": 124.01},
      {"molecule": "O=C(Cc1ccc(NS(=O)(=O)c2cc(Cl)c(Cl)s2)nc1)N1CCOCC1", "note": "[CBK003790]", "% of control remaining": 117.39},
      {"molecule": "Oc1cccc(OCCOc2nc3cc(Cl)c(Cl)cc3nc2N2CCCC2)c1", "note": "[CBK115778]", "% of control remaining": 88.4532}
    ]}
  ]
}
